Assay [1] deals with STIM1 (endogenous, mouse primary hepatocytes) (mouse (endogenous in primary hepatocytes)) (UniProt P70302). Nature of the assay: co-IP; anti-STIM1 antibody cross-linked to protein-A magnetic beads with DMP; lysates of primary hepatocytes from WT and Lep^ob/ob mice in IP lysis buffer (50 mM Tris-HCl pH 7.4, 1 mM EDTA, 150 mM NaCl, 10 mM Na3VO4, 1% NP-40, protease inhibitors, 10 µM PugNac); 300-400 µg protein, overnight; 3 washes; immunoblot for OGT. In general terms: Immunoblotting shows a protein as a band on a membrane.

Protein sequences, listed by entry. Tags and fused reporters are not part of them. Residues count along the entry.
UniProt P70302, residues 23-685: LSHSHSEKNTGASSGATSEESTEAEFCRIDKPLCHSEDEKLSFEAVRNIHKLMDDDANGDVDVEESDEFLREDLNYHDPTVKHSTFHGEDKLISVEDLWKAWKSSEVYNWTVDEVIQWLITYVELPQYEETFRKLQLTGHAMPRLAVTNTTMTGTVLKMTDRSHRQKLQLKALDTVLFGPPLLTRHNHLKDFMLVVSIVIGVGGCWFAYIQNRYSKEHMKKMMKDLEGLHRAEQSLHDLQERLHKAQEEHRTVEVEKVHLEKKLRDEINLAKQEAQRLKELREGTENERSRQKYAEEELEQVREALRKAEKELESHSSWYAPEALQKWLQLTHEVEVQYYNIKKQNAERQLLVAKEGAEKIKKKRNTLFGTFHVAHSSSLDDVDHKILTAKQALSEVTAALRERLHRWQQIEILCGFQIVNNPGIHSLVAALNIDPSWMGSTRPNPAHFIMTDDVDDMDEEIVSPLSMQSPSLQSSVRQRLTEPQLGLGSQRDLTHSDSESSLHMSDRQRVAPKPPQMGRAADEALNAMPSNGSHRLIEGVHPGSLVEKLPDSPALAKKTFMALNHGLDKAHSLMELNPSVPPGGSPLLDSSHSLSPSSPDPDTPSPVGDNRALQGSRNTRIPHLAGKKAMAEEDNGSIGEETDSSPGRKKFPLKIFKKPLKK

Another assay addresses 3xFLAG-mSTIM1 (mouse) (UniProt P70302). Kind of assay: co-IP; lysates of cells stably expressing STIM1-Flag with or without OGT overexpression incubated with anti-flag M2 magnetic beads, eluted by competition with 3x flag peptide; immunoblot for O-GlcNAc and OGT.

No constants are given. Whether binding was seen depends on the method and setting. In cells and extracts the contact can be indirect. Some entries that bind do so weakly or less than the wild type.

B1: OGT (endogenous, mouse primary hepatocytes) (enzyme, UniProt Q8CGY8 1-1046)
chain: MASSVGNVADSTEPTKRMLSFQGLAELAHREYQAGDFEAAERHCMQLWRQEPDNTGVLLLLSSIHFQCRRLDRSAHFSTLAIKQNPLLAEAYSNLGNVYKERGQLQEAIEHYRHALRLKPDFIDGYINLAAALVAAGDMEGAVQAYVSALQYNPDLYCVRSDLGNLLKALGRLEEAKACYLKAIETQPNFAVAWSNLGCVFNAQGEIWLAIHHFEKAVTLDPNFLDAYINLGNVLKEARIFDRAVAAYLRALSLSPNHAVVHGNLACVYYEQGLIDLAIDTYRRAIELQPHFPDAYCNLANALKEKGSVAEAEDCYNTALRLCPTHADSLNNLANIKREQGNIEEAVRLYRKALEVFPEFAAAHSNLASVLQQQGKLQEALMHYKEAIRISPTFADAYSNMGNTLKEMQDVQGALQCYTRAIQINPAFADAHSNLASIHKDSGNIPEAIASYRTALKLKPDFPDAYCNLAHCLQIVCDWTDYDERMKKLVSIVAEQLEKNRLPSVHPHHSMLYPLSHGFRKAIAERHGNLCLDKINVLHKPPYEHPKDLKLSDGRLRVGYVSSDFGNHPTSHLMQSIPGMHNPDKFEVFCYALSPDDGTNFRVKVMAEANHFIDLSQIPCNGKAADRIHQDGIHILVNMNGYTKGARNELFALRPAPIQAMWLGYPGTSGALFMDYIITDQETSPAEVAEQYSEKLAYMPHTFFIGDHANMFPHLKKKAVIDFKSNGHIYDNRIVLNGIDLKAFLDSLPDVKIVKMKCPDGGDNPDSSNTALNMPVIPMNTIAEAVIEMINRGQIQITINGFSISNGLATTQINNKAATGEEVPRTIIVTTRSQYGLPEDAIVYCNFNQLYKIDPSTLQMWANILKRVPNSVLWLLRFPAVGEPNIQQYAQNMGLPQNRIIFSPVAPKEEHVRRGQLADVCLDTPLCNGHTTGMDVLWAGTPMVTMPGETLASRVAASQLTCLGCLELIAKSRQEYEDIAVKLGTDLEYLKKIRGKVWKQRISSPLFNTKQYTMELERLYLQMWEHYAAGNKPDHMIKPVEVTESA
On to B1, for which, in assay [1], the binding result is on record as “binds”.

B2: hOGT (overexpressed from the hOGT/RFP co-expression plasmid with a self-cleaving P2A linker) (enzyme, UniProt O15294 1-1046)
chain: MASSVGNVADSTEPTKRMLSFQGLAELAHREYQAGDFEAAERHCMQLWRQEPDNTGVLLLLSSIHFQCRRLDRSAHFSTLAIKQNPLLAEAYSNLGNVYKERGQLQEAIEHYRHALRLKPDFIDGYINLAAALVAAGDMEGAVQAYVSALQYNPDLYCVRSDLGNLLKALGRLEEAKACYLKAIETQPNFAVAWSNLGCVFNAQGEIWLAIHHFEKAVTLDPNFLDAYINLGNVLKEARIFDRAVAAYLRALSLSPNHAVVHGNLACVYYEQGLIDLAIDTYRRAIELQPHFPDAYCNLANALKEKGSVAEAEDCYNTALRLCPTHADSLNNLANIKREQGNIEEAVRLYRKALEVFPEFAAAHSNLASVLQQQGKLQEALMHYKEAIRISPTFADAYSNMGNTLKEMQDVQGALQCYTRAIQINPAFADAHSNLASIHKDSGNIPEAIASYRTALKLKPDFPDAYCNLAHCLQIVCDWTDYDERMKKLVSIVADQLEKNRLPSVHPHHSMLYPLSHGFRKAIAERHGNLCLDKINVLHKPPYEHPKDLKLSDGRLRVGYVSSDFGNHPTSHLMQSIPGMHNPDKFEVFCYALSPDDGTNFRVKVMAEANHFIDLSQIPCNGKAADRIHQDGIHILVNMNGYTKGARNELFALRPAPIQAMWLGYPGTSGALFMDYIITDQETSPAEVAEQYSEKLAYMPHTFFIGDHANMFPHLKKKAVIDFKSNGHIYDNRIVLNGIDLKAFLDSLPDVKIVKMKCPDGGDNADSSNTALNMPVIPMNTIAEAVIEMINRGQIQITINGFSISNGLATTQINNKAATGEEVPRTIIVTTRSQYGLPEDAIVYCNFNQLYKIDPSTLQMWANILKRVPNSVLWLLRFPAVGEPNIQQYAQNMGLPQNRIIFSPVAPKEEHVRRGQLADVCLDTPLCNGHTTGMDVLWAGTPMVTMPGETLASRVAASQLTCLGCLELIAKNRQEYEDIAVKLGTDLEYLKKVRGKVWKQRISSPLFNTKQYTMELERLYLQMWEHYAAGNKPDHMIKPVEVTESA
On to B2, for which, in the assay with 3xFLAG-mSTIM1 (mouse), the binding result was “binds”.

Values taken from publication PMC5777820.
